The M2OR odorant receptor database
This is a selection; strong and weak results do not stand in their true shares. Calls are pooled over several reports, among them a noisy single-well screen. This is one part of the list.

What was measured:
Details in all cases: stereoisomer not certain
[1] = system: T1, OR5T2
T1 sequence (whole entry): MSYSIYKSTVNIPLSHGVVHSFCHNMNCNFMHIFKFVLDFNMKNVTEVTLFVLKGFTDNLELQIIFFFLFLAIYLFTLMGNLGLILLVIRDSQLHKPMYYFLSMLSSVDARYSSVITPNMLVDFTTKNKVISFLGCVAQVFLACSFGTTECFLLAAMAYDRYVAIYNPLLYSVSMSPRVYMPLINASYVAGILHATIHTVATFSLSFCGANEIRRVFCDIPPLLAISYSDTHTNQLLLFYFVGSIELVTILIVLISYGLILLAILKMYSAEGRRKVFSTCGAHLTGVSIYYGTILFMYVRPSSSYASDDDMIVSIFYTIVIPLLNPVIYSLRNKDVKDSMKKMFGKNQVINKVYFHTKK
Summary of the method: (§1)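 Transient luciferase assays in mammalian cell lines were common, though methods varied by source. The values come from published papers and their supplementary material, with extra details from the original authors when needed. Responsive refers to a measured signal the original authors judged statistically different from baseline, and non-responsive (inactive) to the remainder.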

[2] = system: T2, OR5T2; remark: listed apart in the source
T2 sequence (whole entry): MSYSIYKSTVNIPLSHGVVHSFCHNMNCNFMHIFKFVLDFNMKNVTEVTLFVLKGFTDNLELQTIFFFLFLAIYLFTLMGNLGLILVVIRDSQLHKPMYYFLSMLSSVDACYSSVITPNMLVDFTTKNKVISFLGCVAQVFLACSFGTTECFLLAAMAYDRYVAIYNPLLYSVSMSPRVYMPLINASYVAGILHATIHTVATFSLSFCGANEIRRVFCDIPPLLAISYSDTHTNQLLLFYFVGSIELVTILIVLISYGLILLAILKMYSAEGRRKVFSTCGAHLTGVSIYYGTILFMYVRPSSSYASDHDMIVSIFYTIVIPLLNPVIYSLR
Summary of the method: as §1

[3] = system: T3, OR5T3
T3 sequence (whole entry): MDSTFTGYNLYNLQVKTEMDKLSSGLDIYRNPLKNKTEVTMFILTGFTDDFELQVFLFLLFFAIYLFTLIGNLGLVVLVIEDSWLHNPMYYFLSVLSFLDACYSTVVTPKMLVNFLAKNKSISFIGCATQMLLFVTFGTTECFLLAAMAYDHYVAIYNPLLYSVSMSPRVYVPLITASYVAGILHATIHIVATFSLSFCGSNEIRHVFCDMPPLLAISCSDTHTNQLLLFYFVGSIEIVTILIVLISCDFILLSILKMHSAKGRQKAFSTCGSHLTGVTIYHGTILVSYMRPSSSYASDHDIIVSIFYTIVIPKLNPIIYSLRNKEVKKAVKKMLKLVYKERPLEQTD
Summary of the method: as §1

[4] = target: T4, OR5V1 (Homo sapiens) (UniProt Q9UGF6)
T4 sequence (whole entry): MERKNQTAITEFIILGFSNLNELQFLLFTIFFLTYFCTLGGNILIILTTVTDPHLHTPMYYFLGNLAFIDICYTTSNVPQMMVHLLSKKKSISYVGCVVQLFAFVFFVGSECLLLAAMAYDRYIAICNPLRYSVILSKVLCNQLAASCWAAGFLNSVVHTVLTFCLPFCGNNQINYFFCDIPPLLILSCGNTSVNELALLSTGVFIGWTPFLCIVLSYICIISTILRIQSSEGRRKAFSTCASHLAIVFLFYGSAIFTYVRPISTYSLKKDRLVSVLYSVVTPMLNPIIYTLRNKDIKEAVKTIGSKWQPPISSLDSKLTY
Summary of the method: as §1

[5] = system: T5, OR5W2
T5 sequence (whole entry): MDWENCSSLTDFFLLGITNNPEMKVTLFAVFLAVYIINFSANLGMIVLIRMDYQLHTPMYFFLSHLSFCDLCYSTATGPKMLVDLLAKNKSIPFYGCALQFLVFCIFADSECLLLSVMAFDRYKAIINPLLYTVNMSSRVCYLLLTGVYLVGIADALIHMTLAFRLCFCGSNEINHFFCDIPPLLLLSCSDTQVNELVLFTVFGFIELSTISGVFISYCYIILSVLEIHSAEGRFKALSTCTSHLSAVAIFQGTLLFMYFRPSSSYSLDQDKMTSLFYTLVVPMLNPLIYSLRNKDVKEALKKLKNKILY
Summary of the method: as §1

[6] = target: T6, OR6A2 (Homo sapiens) (UniProt O95222)
T6 sequence (whole entry): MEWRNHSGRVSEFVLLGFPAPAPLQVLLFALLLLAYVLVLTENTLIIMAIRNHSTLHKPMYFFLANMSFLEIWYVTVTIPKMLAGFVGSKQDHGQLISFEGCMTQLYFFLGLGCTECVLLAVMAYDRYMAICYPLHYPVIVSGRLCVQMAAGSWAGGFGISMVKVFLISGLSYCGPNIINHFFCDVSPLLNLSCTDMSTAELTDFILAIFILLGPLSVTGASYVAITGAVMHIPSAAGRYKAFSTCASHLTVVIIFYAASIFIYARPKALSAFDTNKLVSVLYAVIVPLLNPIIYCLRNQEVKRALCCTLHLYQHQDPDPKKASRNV
Summary of the method: as §1

[7] = system: T7, OR6B1
T7 sequence (whole entry): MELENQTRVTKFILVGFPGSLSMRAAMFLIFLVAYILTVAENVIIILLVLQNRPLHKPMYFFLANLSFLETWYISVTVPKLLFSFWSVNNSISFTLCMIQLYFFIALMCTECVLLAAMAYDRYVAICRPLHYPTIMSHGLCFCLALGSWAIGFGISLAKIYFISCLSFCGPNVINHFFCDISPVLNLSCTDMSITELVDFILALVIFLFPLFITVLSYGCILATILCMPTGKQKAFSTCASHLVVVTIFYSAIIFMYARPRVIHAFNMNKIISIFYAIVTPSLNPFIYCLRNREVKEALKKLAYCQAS
Summary of the method: as §1

[8] = system: T8, OR6B2
T8 sequence (whole entry): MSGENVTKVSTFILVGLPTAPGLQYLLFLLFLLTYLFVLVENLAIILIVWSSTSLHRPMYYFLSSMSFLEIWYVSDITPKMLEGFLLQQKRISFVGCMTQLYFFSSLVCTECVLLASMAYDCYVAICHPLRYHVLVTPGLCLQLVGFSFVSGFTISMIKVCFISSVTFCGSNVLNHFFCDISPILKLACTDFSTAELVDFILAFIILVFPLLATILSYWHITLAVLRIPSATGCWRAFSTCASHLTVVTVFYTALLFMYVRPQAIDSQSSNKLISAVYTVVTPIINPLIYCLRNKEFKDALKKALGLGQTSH
Summary of the method: as §1

[9] = system: T9, OR6B3
T9 sequence (whole entry): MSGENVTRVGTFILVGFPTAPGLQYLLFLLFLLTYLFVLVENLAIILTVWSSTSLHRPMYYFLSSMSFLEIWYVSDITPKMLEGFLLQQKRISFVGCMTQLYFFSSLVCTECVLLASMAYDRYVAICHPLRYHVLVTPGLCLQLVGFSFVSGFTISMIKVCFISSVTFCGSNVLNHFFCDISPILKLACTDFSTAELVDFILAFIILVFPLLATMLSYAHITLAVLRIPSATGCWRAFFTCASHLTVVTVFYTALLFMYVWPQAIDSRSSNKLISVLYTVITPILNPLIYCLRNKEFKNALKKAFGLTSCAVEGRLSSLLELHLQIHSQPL
Summary of the method: as §1

[10] = system: T10, OR6C1
T10 sequence (whole entry): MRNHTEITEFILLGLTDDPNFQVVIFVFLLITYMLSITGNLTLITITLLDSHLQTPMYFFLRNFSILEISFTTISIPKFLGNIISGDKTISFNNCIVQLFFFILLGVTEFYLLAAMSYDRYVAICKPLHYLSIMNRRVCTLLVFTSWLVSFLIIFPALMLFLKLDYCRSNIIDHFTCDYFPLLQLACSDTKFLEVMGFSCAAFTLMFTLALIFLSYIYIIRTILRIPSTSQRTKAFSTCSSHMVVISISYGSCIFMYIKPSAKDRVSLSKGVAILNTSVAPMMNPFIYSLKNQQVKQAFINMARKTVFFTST
Summary of the method: as §1

Measured: odorant receptor agonist call;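 further: active if original authors judged signal statistically different from baseline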

CCC(C)=O
inactive: [1] | [2] | [3] | [4] | [5] | [6] | [7] | [8] | [9] | [10]
